Data taken from ChEMBL document CHEMBL3988442, “University of Dundee, Small-Polar-MMV Screening Library” (2021).

Chains of the proteins cited; added tags and fusions are not shown.
UniProt E9BF75, entry or part of it: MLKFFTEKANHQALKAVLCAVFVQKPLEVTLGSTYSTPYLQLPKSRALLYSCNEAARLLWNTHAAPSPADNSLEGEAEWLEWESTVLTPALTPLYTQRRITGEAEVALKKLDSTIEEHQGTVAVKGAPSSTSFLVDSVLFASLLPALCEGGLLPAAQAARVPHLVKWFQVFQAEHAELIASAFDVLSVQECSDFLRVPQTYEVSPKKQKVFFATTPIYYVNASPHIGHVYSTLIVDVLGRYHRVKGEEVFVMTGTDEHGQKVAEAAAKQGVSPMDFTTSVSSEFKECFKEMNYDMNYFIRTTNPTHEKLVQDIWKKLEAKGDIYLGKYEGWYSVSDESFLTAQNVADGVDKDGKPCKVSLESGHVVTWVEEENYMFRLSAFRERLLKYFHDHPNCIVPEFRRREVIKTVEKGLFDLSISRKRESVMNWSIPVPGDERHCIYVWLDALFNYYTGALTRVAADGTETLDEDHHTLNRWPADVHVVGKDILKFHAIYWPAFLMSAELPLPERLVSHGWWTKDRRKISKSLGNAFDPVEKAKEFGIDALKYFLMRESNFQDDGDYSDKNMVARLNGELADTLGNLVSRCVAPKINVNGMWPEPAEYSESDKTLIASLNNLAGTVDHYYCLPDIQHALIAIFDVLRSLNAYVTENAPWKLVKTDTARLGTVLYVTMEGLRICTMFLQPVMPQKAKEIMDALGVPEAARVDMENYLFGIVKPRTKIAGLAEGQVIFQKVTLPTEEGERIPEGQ

A: 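Methionyl-tRNA synthetase (putative), Leishmania donovani (UniProt E9BF75). Primary screen of methionyl-tRNA synthetase; the read-out is not stated. The test concentration is not given. The values are filed as inhibition. About 68,000 compounds were tested under these conditions; 0.035% (about 24) showed 50% or more at least once.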
B: 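Assay on Mycobacterium tuberculosis, filed only as a heat shock assay from Cornell; the read-out is not stated. The concentration is filed as 10 mM, unlikely as a test dose, so the dose is not known. Higher reads as stronger inhibition (inferred: compounds with an IC50 in retests scored well above the rest). About 69,000 compounds were tested under these conditions; 1.4% (about 930) showed 50% or more at least once.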

All values are in %.
The record does not define 0% and 100%; most values in the screen are far below 50% and negative numbers occur (in some assays of this library far below -100).
This is an unselected part of the compounds tested.

* CC(C)NC(=O)NCc1nnc2n1C(C(=O)N(C)C)CC2 (configuration not stated) | A: 9.714%; B: -1.413%
* CN(C)C(=O)Cc1ccccc1NCc1cccc(F)c1F | A: -4.969%; B: -10.01%
* COc1ccccc1CC(=O)N1CCCC(n2nc(C)nc2C)C1 (configuration not stated) | A: 16.06%; B: -10.87%
* COC(=O)c1ncccc1N1CCCC1 | A: 15.41%; B: -4.009%
* CN(c1ccncn1)C1CC2(CCN(C(=O)c3ccsc3)C2)C1 (configuration not stated) | A: 15.03%; B: -1.422%
* CC(=O)Nc1ncc(S(=O)(=O)Nc2ccc(C)cc2)s1 | A: -1.256%; B: 6.892%
* Cc1cnn(C2CN(Cc3nc(C(C)(C)C)no3)C2)c1 | A: 10.12%; B: -20.15%
* Cc1noc(C)c1C(=O)NCc1ccc(N2CCOC(C)C2)nc1 (configuration not stated) | A: 13.99%; B: -15.57%
* O=C(O)C(F)(F)F.O=C(O)C(F)(F)F.[H][C@@]12COC[C@]1(CNS(=O)(=O)CC)CN(Cc1ccccn1)C2 | B: -8.665%
* CCn1ncc(CN2CCc3c(nc(-c4cccnc4)[nH]c3=O)C2)c1C | A: 15.68%; B: -178.1%
* CC(C)C(NC(N)=O)C(=O)N1CCN(c2ccccc2Cl)C(=O)C1 (configuration not stated) | A: 18.51%; B: -31.1%
* Cn1ncc(Cl)c1C(=O)NCCN1CCC(O)(c2ccc(F)cc2)CC1 | A: 10.94%; B: 4.465%
* O=C(CC1CN(Cc2ccccc2)CCO1)NCCN1CCOCC1 (configuration not stated) | A: 6.267%; B: -41.8%
* COc1ccc(C[C@H]2CN(C3CCOCC3)CC[C@@H]2OCC2CC2)cc1.O=C(O)C(F)(F)F | B: -13.08%
* CCOC(=O)c1sc2ccsc2c1CN | A: 7.937%
* Cc1csc(CCNCc2cnc3c(c2)c(C)nn3C)n1.Cl | B: 6.139%
* Cc1nc(C)n(CC2CCCCN2CCOc2ccc(C#N)cc2)n1 (configuration not stated) | A: 29.01%; B: -11.35%
* Cc1noc(NCc2ccc(F)cc2)n1 | A: 11.29%; B: -14.89%
* Cc1noc([C@@H]2C[C@H]3OCC[C@H]3N(S(=O)(=O)c3cccnc3)C2)n1 | A: 14.5%
* CSCC(C)(O)CNS(=O)(=O)c1cccc(Cl)c1 (configuration not stated) | A: 5.932%; B: -0.5634%
* CO[C@H]1CCN(Cc2ccoc2)C[C@@H]1Cc1ccccc1 | A: 3.846%
* Fc1ccc(OCc2nnc([C@H]3CCN(Cc4ccccn4)C3)o2)cc1 | A: 0%; B: 9.201%
* Nc1ncccc1CN1C[C@@H]2CC[C@H](C1)N(CC1CC1)C2=O | A: 8.027%
* COc1ccccc1CNC(=O)CN(C)C(C)c1ccon1 (configuration not stated) | A: 19.23%; B: 1.764%
* COCCN1C[C@@H](C)[C@@]2(COCCN(C(=O)c3cccc(C)n3)C2)C1 | A: 4.235%
* CCN1CCN(C(=O)c2ccc(OC)nn2)c2ccccc21 | A: 15.46%; B: 16.4%
* Cc1ccc(CN2CC[C@H]3C[C@H](C(=O)N(C)C)O[C@H]3C2)cc1 | A: 4.575%
* Cc1ccc(NC(=O)N2CCOC(C)C2)cc1Cl (configuration not stated) | A: 13.5%; B: 8.424%
* Cc1noc(C)c1C(=O)NCc1cc[nH]n1 | A: 11.18%; B: -6.727%
* CCN(CC)[C@@H]1CN(Cc2ccc(C)o2)[C@@H]2CCCO[C@H]12 | A: 7.246%
* Cn1nc(C(=O)N2CCCC2)c(F)c1NC(=O)Cc1ccccc1 | A: 5.036%; B: -7.626%
* O=C(C1CC1)N1C[C@@H](F)[C@@H](OCc2nc3ccccc3o2)C1 | A: 7.119%; B: -17.42%
* NC(=O)C1CCCN1Cc1cccc(NC(=O)c2ccsc2)c1 (configuration not stated) | A: 10.73%; B: -5.757%
* O=C(O)C(F)(F)F.O=C(O)C(F)(F)F.[H][C@@]12CN(Cc3cccs3)C[C@@]1([H])N(Cc1cccnc1)C(=O)CO2 | B: -19%
* CC(CC(=O)c1ccco1)NC(=O)c1ccccn1 (configuration not stated) | A: 7.003%; B: 13.25%
* O=C(O)C(F)(F)F.[H][C@]12CCN(Cc3ccc(CC)o3)[C@@]1([H])CCC(=O)N2 | B: -22.97%
* CC(=O)N1CC(=O)N(c2cnn(C)c2)CC12CCN(Cc1nccs1)C2 (configuration not stated) | A: 13.33%; B: -20.78%
* Cc1nccn1-c1ccc(=O)n(CCNC(=O)c2c(F)cccc2Cl)n1 | A: 12.2%; B: -18.68%
* Cc1noc(C)c1C(=O)NCC(c1ccsc1)N(C)C (configuration not stated) | A: 15%; B: -24.1%
* O=C(CNC(=O)c1ccccc1I)NCc1ccccc1F | A: 10.3%; B: -27.85%